According to publication PMC10756753, “Redox-mediated activation of ATG3 promotes ATG8 lipidation and autophagy progression in Chlamydomonas reinhardtii” (Plant Physiology, 2023):
Numbering of substitutions follows the chain as printed. Names may count otherwise. No constants are given. Whether binding was seen depends on the method and setting. Where a sequence is shown, tags or fusion partners need not be part of it.

Columns and labels:
[1] = molecular target: Saccharomyces cerevisiae ATG3 C234S catalytic mutant (Saccharomyces cerevisiae) (UniProt P40344); assay: non-reducing SDS-PAGE; purified ATG3 (about 2.5-3 ug) in 50 mM Tris-HCl pH 7.5, 25 °C, untreated or treated with DTTred, GSH, DTTox, H2O2 or Cu2+; stopped with βME-free loading buffer, 5 min at 65 °C; 12% or 15% gels, Coomassie; monomer against disulfide-linked dimer; both purified
[2] = molecular target: Saccharomyces cerevisiae ATG3, wild type (Saccharomyces cerevisiae) (UniProt P40344); assay: condition: only at Eh beyond −345 mV in DTT redox buffer (pH 7.5); non-reducing SDS-PAGE; DTT redox titration, 50 mM Tris-HCl pH 7.5, 20 mM total DTT (DTTred + DTTox), 30 min at 25 °C; Eh beyond −345 mV (most reducing samples); 12% gels, Coomassie; both purified

B1: Saccharomyces cerevisiae ATG3 C234S catalytic mutant (enzyme, UniProt P40344 1-310)
chain: MIRSTLSSWREYLTPITHKSTFLTTGQITPEEFVQAGDYLCHMFPTWKWNEESSDISYRDFLPKNKQFLIIRKVPCDKRAEQCVEVEGPDVIMKGFAEDGDEDDVLEYIGSETEHVQSTPAGGTKDSSIDDIDELIQDMEIKEEDENDDTEEFNAKGGLAKDMAQERYYDLYIAYSTSYRVPKMYIVGFNSNGSPLSPEQMFEDISADYRTKTATIEKLPFYKNSVLSVSIHPSKHANVMKILLDKVRVVRQRRRKELQEEQELDGVGDWEDLQDDIDDSLRVDQYLIVFLKFITSVTPSIQHDYTMEGW
binding [1]: no binding

B2: Saccharomyces cerevisiae ATG3, wild type (enzyme, UniProt P40344 1-310, looked up)
chain: B1 chain with S234C
notes: ATG3 (E2-like enzyme of the ATG8 conjugation system), Saccharomyces cerevisiae; catalytic Cys234; also called ScATG3; ScATG3^WT
binding [2]: no binding
